Assay results taken from the supplement of paper PMC7661543.
± gives the standard deviation of the averaged measurements. The effect of the compound repeats well; differences between the knockouts mostly do not.

Tested on: ZR-75-1
Assay: relative cell number vs DMSO control (72 h) (% of DMSO); higher = less growth inhibition (more cells)
Method: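 QMAP-Seq: a pool of 5 breast cancer cell lines (ZR-75-1, SKBR3, HCC-38, MDA-MB-231, BT-20), each carrying 12 doxycycline-inducible Cas9 sgRNA perturbations (11 knockouts plus non-targeting sgNT), was treated with compounds for 72 h at four 10-fold doses (10 nM-10 uM or 1 nM-1 uM range). Barcodes were amplified and sequenced, and cell number was interpolated from 293T spike-in standard curves. The result is expressed as % of the median of DMSO wells. Two biological replicates.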

[1] = sgRNA knockout: sgATF3, 1000 nM
[2] = sgRNA knockout: sgATF3, 10000 nM
[3] = sgRNA knockout: sgATF4, 1000 nM
[4] = sgRNA knockout: sgATF4, 10000 nM
[5] = sgRNA knockout: sgATF6, 1000 nM
[6] = sgRNA knockout: sgATF6, 10000 nM
[7] = sgRNA knockout: sgATG7, 1000 nM
[8] = sgRNA knockout: sgATG7, 10000 nM
[9] = sgRNA knockout: sgERN1, 1000 nM
[10] = sgRNA knockout: sgERN1, 10000 nM
[11] = sgRNA knockout: sgHSF2, 1000 nM
[12] = sgRNA knockout: sgHSF2, 10000 nM
[13] = sgRNA knockout: sgNFE2L2, 10 nM
[14] = sgRNA knockout: sgNFE2L2, 100 nM
[15] = sgRNA knockout: sgNFE2L2, 1000 nM
[16] = sgRNA knockout: sgNFE2L2, 10000 nM
[17] = sgRNA knockout: sgSLC35F2, 10 nM
[18] = sgRNA knockout: sgSLC35F2, 100 nM
[19] = sgRNA knockout: sgSLC35F2, 1000 nM
[20] = sgRNA knockout: sgSLC35F2, 10000 nM
[21] = sgRNA knockout: sgXBP1, 1000 nM
[22] = sgRNA knockout: sgXBP1, 10000 nM

SMILES	relative cell number (sgRNA knockout: sgATF3, 10 nM)	relative cell number (sgRNA knockout: sgATF3, 100 nM)	relative cell number [1]	relative cell number [2]	relative cell number (sgRNA knockout: sgATF4, 10 nM)	relative cell number (sgRNA knockout: sgATF4, 100 nM)	relative cell number [3]	relative cell number [4]	relative cell number (sgRNA knockout: sgATF6, 10 nM)	relative cell number (sgRNA knockout: sgATF6, 100 nM)	relative cell number [5]	relative cell number [6]	relative cell number (sgRNA knockout: sgATG7, 10 nM)	relative cell number (sgRNA knockout: sgATG7, 100 nM)	relative cell number [7]	relative cell number [8]	relative cell number (sgRNA knockout: sgERN1, 10 nM)	relative cell number (sgRNA knockout: sgERN1, 100 nM)	relative cell number [9]	relative cell number [10]	relative cell number (sgRNA knockout: sgHSF2, 10 nM)	relative cell number (sgRNA knockout: sgHSF2, 100 nM)	relative cell number [11]	relative cell number [12]	relative cell number [13]	relative cell number [14]	relative cell number [15]	relative cell number [16]	relative cell number [17]	relative cell number [18]	relative cell number [19]	relative cell number [20]	relative cell number (sgRNA knockout: sgXBP1, 10 nM)	relative cell number (sgRNA knockout: sgXBP1, 100 nM)	relative cell number [21]	relative cell number [22]
C=C(C)[C@@H]1CC[C@]2(C(=O)O)CC[C@]3(C)[C@H](CC[C@@H]4[C@@]5(C)CC[C@H](O)C(C)(C)[C@@H]5CC[C@]43C)[C@@H]12 [BetulinicAcid]	116 ± 53	86.2 ± 2.2	96.8 ± 15	92.8 ± 5.1	88.2 ± 5	78.9 ± 35	78 ± 17	95.6 ± 11	113 ± 44	119 ± 18	79 ± 12	136 ± 20	124 ± 24	106 ± 12	105 ± 40	84.3 ± 48	90.8 ± 16	69.1 ± 5.4	95.3 ± 20	108 ± 2.4	128 ± 3.2	84.5 ± 8	110 ± 37	88.7 ± 6.5	94.6 ± 8.3	80.3 ± 35	115 ± 59	119 ± 14	48.4 ± 13	105 ± 9.2	59 ± 24	51.9 ± 12	95.8 ± 24	87 ± 11	102 ± 29	102 ± 7
C[C@]12CC[C@@H]3c4ccc(O)cc4C[C@@H](CCCCCCCCC[S+]([O-])CCCC(F)(F)C(F)(F)F)[C@H]3[C@@H]1CC[C@@H]2O (stereo not given in full) [Fulvestrant]	96.19 ± 0.38	54.1 ± 3.7	61 ± 3.4	60 ± 6.8	77.8 ± 11	61.1 ± 30	58.3 ± 33	77.4 ± 35	60.8 ± 12	74.2 ± 34	42.6 ± 18	40.3 ± 9.6	74.9 ± 6	47.5 ± 0.7	56 ± 9.9	81.93 ± 0.75	70 ± 8.1	56.3 ± 20	55.8 ± 1.5	73.7 ± 7.9	71.22 ± 0.42	74.1 ± 14	68 ± 28	69.1 ± 22	64.4 ± 28	64.4 ± 5.9	60.4 ± 15	58 ± 25	73.8 ± 23	70.8 ± 14	47.2 ± 12	58.5 ± 7.9	64.8 ± 22	71.8 ± 6.4	61.4 ± 9.6	62 ± 13
CCn1c(=O)c2c(nc(/C=C/c3ccc(OC)c(OC)c3)n2C)n(CC)c1=O [Istradefylline]	99.9 ± 2.1	122 ± 15	98.3 ± 22	139 ± 8.2	113 ± 39	104 ± 21	111 ± 13	119 ± 39	129 ± 60	132 ± 21	128 ± 59	110 ± 5.7	65 ± 24	116 ± 23	88.1 ± 2.2	108 ± 3.8	84.6 ± 23	84.7 ± 5.2	103 ± 30	123 ± 6.3	74.17 ± 0.24	92.1 ± 20	95.6 ± 15	111 ± 14	90.1 ± 2.8	117 ± 3.5	102 ± 28	107.8 ± 0.71	96.3 ± 39	108 ± 12	84.8 ± 42	69.5 ± 7.7	86.7 ± 14	96.2 ± 6.2	105 ± 9.5	103 ± 15
CN(Cc1cnc2nc(N)nc(N)c2n1)c1ccc(C(=O)N[C@@H](CCC(=O)O)C(=O)O)cc1 [Methotrexate]	93.2 ± 5.2	59.7 ± 5.7	37.5 ± 5.1	27.9 ± 3.4	114 ± 22	60 ± 37	52.9 ± 4	54.3 ± 2	104 ± 1.8	45.5 ± 19	33.3 ± 0.45	41.8 ± 27	103 ± 23	65.5 ± 16	30.9 ± 0.73	41.2 ± 19	113 ± 3.8	55.4 ± 9.4	56.2 ± 9.1	39.1 ± 6.5	103 ± 20	54.8 ± 11	38.9 ± 0.52	30.8 ± 3.1	95.6 ± 34	57.7 ± 18	44.4 ± 1.6	34 ± 12	108 ± 20	67.6 ± 37	45.4 ± 13	52.4 ± 7.3	92.9 ± 18	49.2 ± 6.3	42.6 ± 6.1	35.9 ± 1.7
CCC(C)SSc1ncc[nH]1 (stereo not given) [PX12]	153 ± 23	109 ± 2.7	117 ± 6.2	82.9 ± 19	80.8 ± 35	145 ± 22	108 ± 24	89.7 ± 16	143 ± 2.5	87.9 ± 68	106 ± 30	52.6 ± 13	111 ± 32	102 ± 55	108 ± 1.2	49.2 ± 0.98	129 ± 24	101 ± 9.5	105 ± 22	68.2 ± 15	112 ± 2.3	116 ± 30	107 ± 1.5	60.2 ± 3	122 ± 33	126 ± 12	107 ± 35	63.1 ± 27	141 ± 42	160 ± 1.9	113 ± 19	50.8 ± 36	115 ± 28	115 ± 6.5	109 ± 8.1	79.8 ± 3.4
